No constants are given. Whether binding was seen depends on the method and setting. Some binding calls cover weakened binding; strength is not graded here.
B1: monoclonal antibody CHIR-5.9 (antibody, human IgG1, kappa, V domains shown)
VH: EVQLVQSGAEVKKPGESLKISCKGSGYSFTSYWIGWVRQMPGKGLEWMGIIYPGDSDTRYSPSFQGQVTISADKSISTAYLQWSSLKASDTAMYYCARGTAAGRDYYYYYGMDVWGQGTTVTVSS
VL: AIVMTQPPLSSPVTLGQPASISCRSSQSLVHSDGNTYLNWLQQRPGQPPRLLIYKFFRRLSGVPDRFSGSGAGTDFTLKISRVEAEDVGVYYCMQVTQFPHTFGQGTRLEIKR
B2: monoclonal antibody CHIR-12.12 (antibody, human IgG1, kappa, V domains shown)
VH: QVQLVESGGGVVQPGRSLRLSCAASGFTFSSYGMHWVRQAPGKGLEWVAVISYEESNRYHADSVKGRFTISRDNSKITLYLQMNSLRTEDTAVYYCARDGGIAAPGPDYWGQGTLVTVSS
VL: DIVMTQSPLSLTVTPGEPASISCRSSQSLLYSNGYNYLDWYLQKPGQSPQVLISLGSNRASGVPDRFSGSGSGTDFTLKISRVEAEDVGVYYCMQARQTPFTFGPGTKVDIRR

Chains of the proteins cited; added tags and fusions are not shown. Lines headed by an entry give the natural chain unless they say otherwise; changes in a name come on top.
UniProt P25942: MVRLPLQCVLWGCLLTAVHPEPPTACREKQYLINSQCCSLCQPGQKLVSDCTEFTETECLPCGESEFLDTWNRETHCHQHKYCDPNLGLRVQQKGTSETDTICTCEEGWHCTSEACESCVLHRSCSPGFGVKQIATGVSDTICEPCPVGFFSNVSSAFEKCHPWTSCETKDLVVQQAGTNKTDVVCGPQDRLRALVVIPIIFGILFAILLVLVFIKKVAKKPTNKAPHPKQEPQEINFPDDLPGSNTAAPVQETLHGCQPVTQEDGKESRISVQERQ

Molecular target: soluble CD40 (Homo sapiens (Human)) (UniProt P25942)
Assay: ELISA-type assays

Row | Binder | binding
1 | B1 | binds
2 | B2 | binds
